The values that follow come from article PMC9270398.

Results are given in words; binding and its absence hold for the method and conditions named. In cells and extracts the contact can be indirect. Some entries that bind do so weakly or less than the wild type. Tags and fused reporters may be left off the sequences shown.

The test deals with T1, GFP-TRIM24 fusion protein (tripartite motif-containing 24) (not stated (human or mouse cDNA cloned)) (UniProt O15164).
T1 sequence: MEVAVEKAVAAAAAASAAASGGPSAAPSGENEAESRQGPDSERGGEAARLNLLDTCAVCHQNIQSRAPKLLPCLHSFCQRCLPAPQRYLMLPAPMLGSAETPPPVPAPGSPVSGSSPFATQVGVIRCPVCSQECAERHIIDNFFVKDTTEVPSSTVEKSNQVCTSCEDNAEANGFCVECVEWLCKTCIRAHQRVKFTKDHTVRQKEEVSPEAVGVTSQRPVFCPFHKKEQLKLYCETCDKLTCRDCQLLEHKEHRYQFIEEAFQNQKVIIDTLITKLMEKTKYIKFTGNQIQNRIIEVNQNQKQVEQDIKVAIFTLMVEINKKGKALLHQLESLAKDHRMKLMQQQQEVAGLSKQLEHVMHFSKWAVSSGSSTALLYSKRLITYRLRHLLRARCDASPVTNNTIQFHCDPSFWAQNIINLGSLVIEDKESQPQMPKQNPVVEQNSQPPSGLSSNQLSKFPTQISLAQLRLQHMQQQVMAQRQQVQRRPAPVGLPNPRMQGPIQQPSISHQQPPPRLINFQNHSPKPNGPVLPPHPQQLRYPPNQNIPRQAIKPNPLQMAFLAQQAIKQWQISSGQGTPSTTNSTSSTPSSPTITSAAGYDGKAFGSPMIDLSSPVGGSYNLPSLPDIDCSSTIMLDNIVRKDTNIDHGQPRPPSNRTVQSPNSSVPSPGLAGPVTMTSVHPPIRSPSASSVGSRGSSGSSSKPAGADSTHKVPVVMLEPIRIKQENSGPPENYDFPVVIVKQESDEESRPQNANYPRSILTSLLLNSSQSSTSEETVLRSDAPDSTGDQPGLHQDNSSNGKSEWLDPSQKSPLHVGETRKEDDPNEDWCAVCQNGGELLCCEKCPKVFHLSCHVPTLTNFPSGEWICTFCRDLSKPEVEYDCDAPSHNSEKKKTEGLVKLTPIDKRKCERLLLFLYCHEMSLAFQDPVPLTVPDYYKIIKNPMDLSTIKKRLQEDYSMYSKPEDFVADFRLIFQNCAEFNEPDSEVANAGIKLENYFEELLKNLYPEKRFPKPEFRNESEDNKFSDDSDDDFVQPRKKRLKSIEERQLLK
Briefly: co-IP; GFP-TRIM24 expressed in HEK293 cells, immunoprecipitated with the GFP antibody; endogenous P-body components detected by immunoblotting. A general note: In western blotting, separated proteins are transferred to a membrane and probed.

B1: LSM1, endogenous in HEK293 cells (protein, UniProt O15116 1-133)
chain: MNYMPGTASLIEDIDKKHLVLLRDGRTLIGFLRSIDQFANLVLHQTVERIHVGKKYGDIPRGIFVVRGENVVLLGEIDLEKESDTPLQQVSIEEILEEQRVEQQTKLEAEKLKVQALKDRGLSIPRADTLDEY
On to B1, for which the binding result was “binds”.

B2: EDC4 (enhancer of decapping protein 4), endogenous in HEK293 cells (protein, UniProt Q6P2E9-1 1-1401)
chain: MASCASIDIEDATQHLRDILKLDRPAGGPSAESPRPSSAYNGDLNGLLVPDPLCSGDSTSANKTGLRTMPPINLQEKQVICLSGDDSSTCIGILAKEVEIVASSDSSISSKARGSNKVKIQPVAKYDWEQKYYYGNLIAVSNSFLAYAIRAANNGSAMVRVISVSTSERTLLKGFTGSVADLAFAHLNSPQLACLDEAGNLFVWRLALVNGKIQEEILVHIRQPEGTPLNHFRRIIWCPFIPEESEDCCEESSPTVALLHEDRAEVWDLDMLRSSHSTWPVDVSQIKQGFIVVKGHSTCLSEGALSPDGTVLATASHDGYVKFWQIYIEGQDEPRCLHEWKPHDGRPLSCLLFCDNHKKQDPDVPFWRFLITGADQNRELKMWCTVSWTCLQTIRFSPDIFSSVSVPPSLKVCLDLSAEYLILSDVQRKVLYVMELLQNQEEGHACFSSISEFLLTHPVLSFGIQVVSRCRLRHTEVLPAEEENDSLGADGTHGAGAMESAAGVLIKLFCVHTKALQDVQIRFQPQLNPDVVAPLPTHTAHEDFTFGESRPELGSEGLGSAAHGSQPDLRRIVELPAPADFLSLSSETKPKLMTPDAFMTPSASLQQITASPSSSSSGSSSSSSSSSSSLTAVSAMSSTSAVDPSLTRPPEELTLSPKLQLDGSLTMSSSGSLQASPRGLLPGLLPAPADKLTPKGPGQVPTATSALSLELQEVEPLGLPQASPSRTRSPDVISSASTALSQDIPEIASEALSRGFGSSAPEGLEPDSMASAASALHLLSPRPRPGPELGPQLGLDGGPGDGDRHNTPSLLEAALTQEASTPDSQVWPTAPDITRETCSTLAESPRNGLQEKHKSLAFHRPPYHLLQQRDSQDASAEQSDHDDEVASLASASGGFGTKVPAPRLPAKDWKTKGSPRTSPKLKRKSKKDDGDAAMGSRLTEHQVAEPPEDWPALIWQQQRELAELRHSQEELLQRLCTQLEGLQSTVTGHVERALETRHEQEQRRLERALAEGQQRGGQLQEQLTQQLSQALSSAVAGRLERSIRDEIKKTVPPCVSRSLEPMAGQLSNSVATKLTAVEGSMKENISKLLKSKNLTDAIARAAADTLQGPMQAAYREAFQSVVLPAFEKSCQAMFQQINDSFRLGTQEYLQQLESHMKSRKAREQEAREPVLAQLRGLVSTLQSATEQMAATVAGSVRAEVQHQLHVAVGSLQESILAQVQRIVKGEVSVALKEQQAAVTSSIMQAMRSAAGTPVPSAHLDCQAQQAHILQLLQQGHLNQAFQQALTAADLNLVLYVCETVDPAQVFGQPPCPLSQPVLLSLIQQLASDLGTRTDLKLSYLEEAVMHLDHSDPITRDHMGSVMAQVRQKLFQFLQAEPHNSLGKAARRLSLMLHGLVTPSLP
As to B2, the binding result is “binds”.
